These are yes or no findings as the source states them, for the method shown. Some results given as binding are weak or reduced against the parent protein; the word gives no strength. Where a sequence is shown, tags or fusion partners need not be part of it.

The target of this experiment is T1, LexA fusion of the cytoplasmic tail of human TMIGD1 (AA 241-262) (human) (UniProt Q6UXZ0).
T1 sequence: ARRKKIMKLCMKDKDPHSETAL
Put plainly: two-hybrid; screen: LexA-TMIGD1 cytoplasmic tail (AA 241-262) as bait in S. cerevisiae L40, day 9.5/10.5 mouse embryo cDNA library; selection on SD-THULL with 1 mM 3-aminotriazole, 30 °C.

B1: murine SYNJ2BP AA 1-105 (clone isolated from the yeast two-hybrid library) (domain or fragment, UniProt Q9D6K5 1-105)
chain: MNGRVDYLVTEEEINLTRGPSGLGFNIVGGTDQQYVSNDSGIYVSRIKEDGAAAQDGRLQEGDKILSVNGQDLKNLLHQDAVDLFRNAGCAVSLRVQHRLPVQNG
B1: the binding result is recorded as “binds”.

(Values after PMC7164261.)
